The nature of the data set: Aerosol deposition in Vitrocell cell-free inserts. The note with it: for Mean deposition in cell-free Vitrocell inserts: 2.5% drug in propylene glycol.

For `CCN(CC)CCCC(C)Nc1ccnc2cc(Cl)ccc12` (stereo not drawn) [chloroquine], the Percent deposition was 0.27% (25 puffs), 0.27% (50 puffs) and 0.24% (100 puffs). Moreover, the “Mean deposition in cell-free Vitrocell inserts” value reads like this: (25 puffs) 7.998 µg; (50 puffs) 15.022 µg; (100 puffs) 28.311 µg.
